Results on one molecule are retold here after publication PMC10709559.

These are yes or no findings as the source states them, for the method shown. In cells and extracts the contact can be indirect. Some entries that bind do so weakly or less than the wild type. Where a sequence is shown, tags or fusion partners need not be part of it.

The target of the assay is T1, CTCF (human (endogenous in HEK293)) (UniProt P49711).
T1 sequence: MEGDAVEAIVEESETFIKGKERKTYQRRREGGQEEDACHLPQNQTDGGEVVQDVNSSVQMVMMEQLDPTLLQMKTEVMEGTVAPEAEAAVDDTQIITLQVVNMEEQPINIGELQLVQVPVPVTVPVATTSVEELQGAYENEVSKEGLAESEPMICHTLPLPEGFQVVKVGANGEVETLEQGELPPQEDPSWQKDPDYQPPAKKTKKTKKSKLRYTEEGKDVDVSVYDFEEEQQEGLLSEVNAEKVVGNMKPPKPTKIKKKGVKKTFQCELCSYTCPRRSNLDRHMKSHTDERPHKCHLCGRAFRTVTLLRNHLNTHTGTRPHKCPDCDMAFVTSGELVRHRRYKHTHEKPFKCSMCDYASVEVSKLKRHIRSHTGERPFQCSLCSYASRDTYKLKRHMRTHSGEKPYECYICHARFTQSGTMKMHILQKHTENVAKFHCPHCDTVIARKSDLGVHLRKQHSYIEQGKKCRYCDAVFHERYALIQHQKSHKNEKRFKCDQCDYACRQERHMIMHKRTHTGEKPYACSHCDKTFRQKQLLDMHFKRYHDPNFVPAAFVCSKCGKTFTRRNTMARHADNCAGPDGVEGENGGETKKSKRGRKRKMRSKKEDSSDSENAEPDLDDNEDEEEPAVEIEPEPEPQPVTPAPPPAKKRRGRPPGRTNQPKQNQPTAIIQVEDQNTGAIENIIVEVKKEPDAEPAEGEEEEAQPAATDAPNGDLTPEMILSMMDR
Put plainly: co-IP; HEK293 transfected with ΔNp63α-HA, lysed 24 h later in Triton buffer (150 mM NaCl, 50 mM Tris HCl, 0.5% Triton); 2 mg lysate; anti-CTCF or IgG isotype control on Protein A Sepharose, overnight at 4 °C; Western blot for HA and CTCF. In general terms: Immunoblotting shows a protein as a band on a membrane.

B1: ΔNp63α-HA (protein, UniProt Q9H3D4-2 1-586)
chain: MLYLENNAQTQFSEPQYTNLGLLNSMDQQIQNGSSSTSPYNTDHAQNSVTAPSPYAQPSSTFDALSPSPAIPSNTDYPGPHSFDVSFQQSSTAKSATWTYSTELKKLYCQIAKTCPIQIKVMTPPPQGAVIRAMPVYKKAEHVTEVVKRCPNHELSREFNEGQIAPPSHLIRVEGNSHAQYVEDPITGRQSVLVPYEPPQVGTEFTTVLYNFMCNSSCVGGMNRRPILIIVTLETRDGQVLGRRCFEARICACPGRDRKADEDSIRKQQVSDSTKNGDGTKRPFRQNTHGIQMTSIKKRRSPDDELLYLPVRGRETYEMLLKIKESLELMQYLPQHTIETYRQQQQQQHQHLLQKQTSIQSPSSYGNSSPPLNKMNSMNKLPSVSQLINPQQRNALTPTTIPDGMGANIPMMGTHMPMAGDMNGLSPTQALPPPLSMPSTSHCTPPPPYPTDCSIVSFLARLGCSSCLDYFTTQGLTTIYQIEHYSMDDLASLKIPEQFRHAIWKGILDHRQLHEFSSPSHLLRTPSSASTVSVGSSETRGERVIDAVRFTLRQTISFPPRDEWNDFNFDMDARRNKQQRIKEEGE
Regarding B1, the binding entry is recorded as “binds”.
